According to PMC6134110:
Results are given in words; binding and its absence hold for the method and conditions named. In cells and extracts the contact can be indirect. Some entries that bind do so weakly or less than the wild type.

Protein sequences, listed by entry. Tags and fused reporters are not part of them. Residues count along the entry.
UniProt O00206, residues 24-839: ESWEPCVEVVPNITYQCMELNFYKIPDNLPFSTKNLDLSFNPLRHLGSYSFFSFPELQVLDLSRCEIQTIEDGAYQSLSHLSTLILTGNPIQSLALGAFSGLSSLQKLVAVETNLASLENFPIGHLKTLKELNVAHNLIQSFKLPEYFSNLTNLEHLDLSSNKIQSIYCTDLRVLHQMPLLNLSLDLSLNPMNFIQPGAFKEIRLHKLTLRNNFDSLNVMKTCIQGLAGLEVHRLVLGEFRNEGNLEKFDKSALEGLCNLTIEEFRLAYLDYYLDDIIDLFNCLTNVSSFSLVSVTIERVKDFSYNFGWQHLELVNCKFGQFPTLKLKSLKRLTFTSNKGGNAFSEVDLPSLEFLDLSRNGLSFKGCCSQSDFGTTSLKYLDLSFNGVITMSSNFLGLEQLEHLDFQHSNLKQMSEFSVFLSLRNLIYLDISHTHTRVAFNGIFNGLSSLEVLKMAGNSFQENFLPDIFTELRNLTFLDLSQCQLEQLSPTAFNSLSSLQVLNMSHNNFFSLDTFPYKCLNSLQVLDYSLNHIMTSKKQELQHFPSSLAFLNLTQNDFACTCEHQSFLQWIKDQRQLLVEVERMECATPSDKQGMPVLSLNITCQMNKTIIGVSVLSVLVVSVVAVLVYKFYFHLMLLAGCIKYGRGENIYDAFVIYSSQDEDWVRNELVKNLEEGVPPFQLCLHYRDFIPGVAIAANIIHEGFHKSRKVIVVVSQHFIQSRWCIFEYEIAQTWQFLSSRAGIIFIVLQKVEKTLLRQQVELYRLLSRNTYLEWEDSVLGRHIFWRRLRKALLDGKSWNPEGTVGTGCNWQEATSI
UniProt P58753: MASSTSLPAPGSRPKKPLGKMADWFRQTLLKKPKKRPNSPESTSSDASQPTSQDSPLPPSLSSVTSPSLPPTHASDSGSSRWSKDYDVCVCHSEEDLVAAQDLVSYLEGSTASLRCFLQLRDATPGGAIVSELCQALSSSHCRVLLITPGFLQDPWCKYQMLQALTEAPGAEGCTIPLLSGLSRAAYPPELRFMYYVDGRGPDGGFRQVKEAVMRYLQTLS

Molecular target: Toll-like receptor 4 (TLR4-Flag) (UniProt O00206)
Assay: co-IP; HEK-Blue cells stably transfected with human CD14 and MD-2, treated with 10 uM D-PDMP or ethanol vehicle, transfected with HA-Mal and TLR4-Flag for 24 h, then 100 ng/ml LPS E. coli O111:B4 for 10 min; lysis in 50 mM Tris-HCl pH 7.5, 150 mM NaCl, 2 mM EDTA, 1% Igepal; IP with anti-Flag (M2), blot with anti-HA and anti-Flag

binding: binds
Substance: adaptor protein Mal (TIRAP), HA-tagged (from UniProt P58753 1-221)
